Laboratory results published in PMC8724010.

Sequences of proteins named here, by UniProt entry; tags and fusion partners are left off.
UniProt O00255: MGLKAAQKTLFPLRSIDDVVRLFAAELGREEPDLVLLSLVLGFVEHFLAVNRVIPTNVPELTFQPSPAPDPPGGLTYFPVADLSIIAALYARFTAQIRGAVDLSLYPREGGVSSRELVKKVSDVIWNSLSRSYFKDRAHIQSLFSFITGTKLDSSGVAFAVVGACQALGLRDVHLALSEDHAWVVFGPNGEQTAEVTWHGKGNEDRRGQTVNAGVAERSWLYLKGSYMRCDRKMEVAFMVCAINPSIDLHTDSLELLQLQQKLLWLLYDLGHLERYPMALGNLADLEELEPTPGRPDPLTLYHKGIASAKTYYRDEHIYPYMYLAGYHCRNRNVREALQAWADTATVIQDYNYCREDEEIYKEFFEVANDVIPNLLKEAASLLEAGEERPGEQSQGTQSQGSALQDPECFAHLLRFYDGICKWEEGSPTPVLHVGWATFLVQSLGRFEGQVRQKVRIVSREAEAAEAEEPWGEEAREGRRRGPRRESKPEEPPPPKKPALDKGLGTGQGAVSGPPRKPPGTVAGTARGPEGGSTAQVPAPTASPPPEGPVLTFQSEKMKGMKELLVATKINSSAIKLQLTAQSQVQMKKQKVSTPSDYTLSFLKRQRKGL

Target: Menin (human (endogenous in LNCaP, PNT1A, PC-3)) (UniProt O00255)
Assay: affinity purification with mass spectrometry; IP-MS of Menin from PNT1A, LNCaP and PC-3 cells; IP in triplicate, three technical replications of MS

binding: binds
B1: SNW Domain Containing 1 (protein, UniProt Q13573 1-536)
chain: MALTSFLPAPTQLSQDQLEAEEKARSQRSRQTSLVSSRREPPPYGYRKGWIPRLLEDFGDGGAFPEIHVAQYPLDMGRKKKMSNALAIQVDSEGKIKYDAIARQGQSKDKVIYSKYTDLVPKEVMNADDPDLQRPDEEAIKEITEKTRVALEKSVSQKVAAAMPVRAADKLAPAQYIRYTPSQQGVAFNSGAKQRVIRMVEMQKDPMEPPRFKINKKIPRGPPSPPAPVMHSPSRKMTVKEQQEWKIPPCISNWKNAKGYTIPLDKRLAADGRGLQTVHINENFAKLAEALYIADRKAREAVEMRAQVERKMAQKEKEKHEEKLREMAQKARERRAGIKTHVEKEDGEARERDEIRHDRRKERQHDRNLSRAAPDKRSKLQRNENRDISEVIALGVPNPRTSNEVQYDQRLFNQSKGMDSGFAGGEDEIYNVYDQAWRGGKDMAQSIYRPSKNLDKDMYGDDLEARIKTNRFVPDKEFSGSDRRQRGREGPVQFEEDPFGLDKFLEEAKQHGGSKRPSDSSRPKEHEHEGKKRRKE

These are yes or no findings as the source states them, for the method shown. In cells and extracts the contact can be indirect. These calls come from enrichment with a bait or labelling near it, and not all partners need be listed.
